# Assay results from US20170189504A1, “NOVEL PEPTIDES AND COMBINATION OF PEPTIDES FOR USE IN IMMUNOTHERAPY AGAINST VARIOUS CANCERS” (immatics biotechnologies GmbH, priority 2015, published 2017).
# Experiments:
# HLA-A*02 = assay: Identification and relative LC-MS quantitation of HLA-A*02-presented tumor-associated peptides on tissue samples (presentation profiles, Tables 13A, 13B, 15, FIG. 1); design: species or system human; key to Presentation score NHL / Presentation score CLL / Presentation score BRCA / Presentation score AML / Presentation score GB / Presentation score NSCLC / Presentation score GBC_CCC / Presentation score UEC / Presentation score MEL / Presentation score OSCAR / Presentation score GC / Presentation score UBC / Presentation score OC / Presentation score RCC / Presentation score CRC / Presentation score PCA / Presentation score HCC / Presentation score PC / Presentation score SCLC: specifically presented on tumors (++++); very highly over-presented on tumors compared to a panel of normal tissues (+++); highly over-presented on tumors compared to a panel of normal tissues (++); over-presented on tumors compared to a panel of normal tissues (+); conditions: for number of cancer tissues where the peptide was found to be presented: FIG. 1, A*02 positive samples, only samples with presentation shown; for Peptide Presentation on cancer entities: HLA-A*02-binding tumor-associated peptides
# tumor samples = assay: Absolute quantitation of tumor associated peptides presented on the cell surface (copies per cell, nanoLC-MS/MS) (Table 22); design: species or system human; conditions: absolute peptide quantitation in tumor samples
# HLA-A*24 = assay: Identification and relative LC-MS quantitation of HLA-A*24-presented tumor-associated peptides on tissue samples (presentation profiles, Tables 14A, 14B, 16, FIG. 1); design: species or system human; key to Presentation score GC / Presentation score NSCLC / Presentation score PCA / Presentation score GB / Presentation score HCC / Presentation score RCC: specifically presented on tumors (++++); very highly over-presented on tumors compared to a panel of normal tissues (+++); highly over-presented on tumors compared to a panel of normal tissues (++); over-presented on tumors compared to a panel of normal tissues (+); conditions: for Presentation score GC: gastric cancer (N = 44) vs panel of normal tissues (N = 70); for Presentation score NSCLC: non-small cell lung cancer (N = 91) vs panel of normal tissues (N = 70); for Peptide Presentation on cancer entities: Table 14A, HLA-A*24-binding tumor-associated peptides, cancer entities on which the peptide was found presented
# source genes (mRNA) [1] = assay: Expression profiling of source genes by in-house RNASeq of tumor and normal tissues (Table 18, FIG. 2); design: species or system human; key: very highly over-expressed in tumors compared to a panel of normal tissues (+++); highly over-expressed in tumors compared to a panel of normal tissues (++); over-expressed in tumors compared to a panel of normal tissues (+); conditions: source gene of peptide; for Expression score OSCAR: esophageal cancer incl. gastric-esophageal junction (N = 11) vs panel of normal tissues; for Expression score NHL: non-Hodgkin lymphoma (N = 10) vs panel of normal tissues; for Expression score NSCLC: non-small cell lung cancer (N = 11) vs panel of normal tissues; for Expression score OC: ovarian cancer (N = 12) vs panel of normal tissues; for Expression score SCLC: small cell lung cancer (N = 10) vs panel of normal tissues
# source genes (mRNA) [2] = assay: Gene and exon expression of source genes, TCGA tumor samples compared with normal tissue samples (Lonsdale, 2013) (Table 17); design: species or system human; conditions: tumor expression more than 2-fold above highest 75% percentile of high and medium risk normal tissues; for Target coverage: over-expression category of source gene, BLCA: Bladder urothelial carcinoma (N = 408); for Target coverage: over-expression category of source gene, BRCA: Breast cancer (N = 1104); for Target coverage: over-expression category of source gene, READ: Colon and rectal adenocarcinoma (N = 167); for Target coverage: over-expression category of source gene, COAD: Colon and rectal adenocarcinoma (N = 462); for Target coverage: over-expression category of source gene, ESCA: Esophageal cancer (N = 185); for Target coverage: over-expression category of source gene, LUAD: Lung adenocarcinoma (N = 517); for Target coverage: over-expression category of source gene, LUSC: Lung squamous cell carcinoma (N = 503); for Target coverage: over-expression category of source gene, DLBC: Lymphoid neoplasm diffuse large B-cell lymphoma (N = 48); for Target coverage: over-expression category of source gene, OV: Ovarian serous cystadenocarcinoma (N = 309); for Target coverage: over-expression category of source gene, SKCM: Skin cutaneous melanoma (N = 473); for Target coverage: over-expression category of source gene, STAD: Stomach adenocarcinoma (N = 415); for Target coverage: over-expression category of source gene, UCEC: Uterine corpus endometrial carcinoma (N = 546)
# [3] = Table 13A, cancer entities on which the peptide was found presented
# [4] = Table 13B, presentation on additional cancer entities
# [5] = FIG. 1, A*24 positive samples, only samples with presentation shown
Substance,Copies per cell (median) (tumor samples),number of cancer tissues where the peptide was found to be presented (HLA-A*02),Peptide Presentation on cancer entities (HLA-A*02; [3]),Peptide Presentation on cancer entities (HLA-A*02; [4]),Presentation score GC (HLA-A*24; HLA-A*24 peptides),Presentation score NSCLC (HLA-A*24; HLA-A*24 peptides),Peptide Presentation on cancer entities (HLA-A*24),Expression score OSCAR (source genes (mRNA) [1]),Expression score NHL (source genes (mRNA) [1]),Expression score NSCLC (source genes (mRNA) [1]),Expression score OC (source genes (mRNA) [1]),Expression score SCLC (source genes (mRNA) [1]),"Target coverage: over-expression category of source gene, BLCA (source genes (mRNA) [2])","Target coverage: over-expression category of source gene, BRCA (source genes (mRNA) [2])","Target coverage: over-expression category of source gene, READ (source genes (mRNA) [2])","Target coverage: over-expression category of source gene, COAD (source genes (mRNA) [2])","Target coverage: over-expression category of source gene, ESCA (source genes (mRNA) [2])","Target coverage: over-expression category of source gene, LUAD (source genes (mRNA) [2])","Target coverage: over-expression category of source gene, LUSC (source genes (mRNA) [2])","Target coverage: over-expression category of source gene, DLBC (source genes (mRNA) [2])",other results
24 (TLDEKVAEL; listed as Homo sapiens) [compound 24],+ (<100 = +),,,,,,,,,,,,,,,,,,,,"Presentation score OSCAR (HLA-A*02; HLA-A*02 peptides, esophageal cancer, including cancer of the gastric-esophageal junction (N = 17) vs panel of normal tissues (N = 262)): ++++; Presentation score HCC (HLA-A*02; HLA-A*02 peptides, hepatocellular carcinoma (N = 16) vs panel of normal tissues (N = 262)): ++++; Presentation score MEL (HLA-A*02; HLA-A*02 peptides, melanoma (N = 7) vs panel of normal tissues (N = 262)): ++++; Presentation score NSCLC (HLA-A*02; HLA-A*02 peptides, non-small cell lung cancer (N = 90) vs panel of normal tissues (N = 262)): ++++"
32 (VQLDSIEDLEV; listed as Homo sapiens) [compound 32],++ (>=100 = ++),10,"CLL, OC","NSCLC, OC, UEC, MEL",,,,,,,,,,,,,,,,,"Presentation score CLL (HLA-A*02; HLA-A*02 peptides, chronic lymphocytic leukemia (N = 17) vs panel of normal tissues (N = 262)): ++++; Presentation score OC (HLA-A*02; HLA-A*02 peptides, ovarian cancer (N = 20) vs panel of normal tissues (N = 262)): ++++"
39 (HLLEGSVGV; listed as Homo sapiens) [compound 39],+ (<100 = +),7,BRCA,"HCC, MEL",,,,,,,,,,,,,,,,,"Presentation score BRCA (HLA-A*02; HLA-A*02 peptides, breast cancer (N = 17) vs panel of normal tissues (N = 262)): ++++"
251 (ALSVLRLAL; listed as Homo sapiens) [compound 251],++ (>=100 = ++),,AML,,,,,,,,,,,,,,,,,,"Presentation score AML (HLA-A*02; HLA-A*02 peptides, acute myeloid leukemia (N = 18) vs panel of normal tissues (N = 262)): ++++"
288: peptide found in NUP210 (gene looked up) (VYVSDIQEL; listed as Homo sapiens) [compound 288],,,,,+,+,"GC, NSCLC, HCC, PCA",+,++,+,+,+,"C (>=5% of tumors above the cutoff, but <20%)","C (>=5% of tumors above the cutoff, but <20%)","C (>=5% of tumors above the cutoff, but <20%)","C (>=5% of tumors above the cutoff, but <20%)","B (>= 20% of tumors above the cutoff, but <50%)","C (>=5% of tumors above the cutoff, but <20%)","C (>=5% of tumors above the cutoff, but <20%)","B (>= 20% of tumors above the cutoff, but <50%)","number of cancer tissues where the peptide was found to be presented (HLA-A*24; [5]): 21; number of normal tissues where the peptide was found to be presented (HLA-A*24; [5]): 2; Presentation score HCC (HLA-A*24; HLA-A*24 peptides, hepatocellular carcinoma (N = 15) vs panel of normal tissues (N = 70)): +; Expression score AML (source genes (mRNA) [1]; acute myeloid leukemia (N = 11) vs panel of normal tissues): ++; Expression score CLL (source genes (mRNA) [1]; chronic lymphocytic leukemia (N = 10) vs panel of normal tissues): +; Target coverage: over-expression category of source gene, LAML (source genes (mRNA) [2]; Acute Myeloid Leukemia (N = 173)): A (>=50% of tumors above the cutoff); Target coverage: over-expression category of source gene, OV (source genes (mRNA) [2]): B (>= 20% of tumors above the cutoff, but <50%); Target coverage: over-expression category of source gene, SKCM (source genes (mRNA) [2]): C (>=5% of tumors above the cutoff, but <20%); Target coverage: over-expression category of source gene, STAD (source genes (mRNA) [2]): C (>=5% of tumors above the cutoff, but <20%); Target coverage: over-expression category of source gene, UCEC (source genes (mRNA) [2]): C (>=5% of tumors above the cutoff, but <20%)"
302: peptide found in IDO1 (gene looked up) (RYMPPAHRNF; listed as Homo sapiens) [compound 302],,,,,++++,++++,"GC, NSCLC",++,+,+++,+++,++,"B (>= 20% of tumors above the cutoff, but <50%)","B (>= 20% of tumors above the cutoff, but <50%)","B (>= 20% of tumors above the cutoff, but <50%)","B (>= 20% of tumors above the cutoff, but <50%)","B (>= 20% of tumors above the cutoff, but <50%)",A (>=50% of tumors above the cutoff),A (>=50% of tumors above the cutoff),A (>=50% of tumors above the cutoff),"Expression score BRCA (source genes (mRNA) [1]; BRCA tumors vs panel of normal tissues): +; Expression score PC (source genes (mRNA) [1]; pancreatic cancer (N = 26) vs panel of normal tissues): +; Expression score RCC (source genes (mRNA) [1]; renal cell carcinoma (N = 10) vs panel of normal tissues): +; Expression score UBC (source genes (mRNA) [1]; urinary bladder cancer (N = 10) vs panel of normal tissues): +; Expression score UEC (source genes (mRNA) [1]; uterine cancer (N = 10) vs panel of normal tissues): ++; Target coverage: over-expression category of source gene, CHOL (source genes (mRNA) [2]; Cholangiocarcinoma (N = 36)): C (>=5% of tumors above the cutoff, but <20%); Target coverage: over-expression category of source gene, KIRC (source genes (mRNA) [2]; Clear cell kidney carcinoma (N = 534)): A (>=50% of tumors above the cutoff); Target coverage: over-expression category of source gene, KICH (source genes (mRNA) [2]; Kidney chromophobe (N = 66)): C (>=5% of tumors above the cutoff, but <20%); Target coverage: over-expression category of source gene, OV (source genes (mRNA) [2]): A (>=50% of tumors above the cutoff); Target coverage: over-expression category of source gene, PAAD (source genes (mRNA) [2]; Pancreatic ductal adenocarcinoma (N = 179)): C (>=5% of tumors above the cutoff, but <20%); Target coverage: over-expression category of source gene, PRAD (source genes (mRNA) [2]; Prostate adenocarcinoma (N = 498)): C (>=5% of tumors above the cutoff, but <20%); Target coverage: over-expression category of source gene, SKCM (source genes (mRNA) [2]): B (>= 20% of tumors above the cutoff, but <50%); Target coverage: over-expression category of source gene, STAD (source genes (mRNA) [2]): B (>= 20% of tumors above the cutoff, but <50%); Target coverage: over-expression category of source gene, UCEC (source genes (mRNA) [2]): A (>=50% of tumors above the cutoff)"

# For part of these data: Expression grades refer to the transcript from which the peptide derives; gene names, where given, were looked up from the sequence.
